Values of other authors in patent US11964046B2, “Topical composition for the control of pain in animals” (priority 2016, dated 2024).
At least one compound was matched to its structure with a doubt left.

Tested on: piglets
Conditions: injected

Cc1cnc(NC(=O)C2=C(O)c3ccccc3S(=O)(=O)N2C)s1 [meloxicam]
pain after castration (study conclusion): reduced pain after castration
